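A 24-hour cytotoxicity screen that tracks drops in ATP-driven light output in the LYMP1-002 lymphoblastoid line.
Compounds were tested as a dilution series spanning roughly 0.59 nM up to 92 µM.
The number is the fitted AC50 potency for ATP loss; a lower value means stronger cytotoxic potency.
Calls come from curve class and fit quality, with active scores of 40–100; these rows are inconclusive because their effects are weak, partial or seen only at the top dose.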

Values are in µM.
All entries here are filed as inconclusive.
These entries are mostly ones the record files as inconclusive; other results of the assay are not listed here.
Potencies fitted to partial, single-point or poorly fitting curves are rough.
Some entries filed as inconclusive have a full curve.
Activity scores are not listed here.

| SMILES | Potency (µM) | curve as filed |
|---|---|---|
| `ClC1=C(Cl)C2(Cl)C3C4C=CC(C4)C3C1(Cl)C2(Cl)Cl` (stereo not given) | 39.81 | cytotoxic, partial curve |
| `C=CC(=O)OCCOCCOC(=O)C=C` | 19.95 | cytotoxic, partial curve |
| `Nc1ncn([C@@H]2O[C@H](CO)[C@@H](O)[C@H]2O)c(=O)n1` | 15.85 | cytotoxic, partial curve |
| `O=C1OC(O)C(C(Cl)Cl)=C1Cl` (stereo not given) | 79.43 | cytotoxic, single point |
| `C=CC(=O)OCCCCCCOC(=O)C=C` | 39.81 | cytotoxic, partial curve |
| `Oc1cc2c(cc1O)[C@H]1c3ccc(O)c(O)c3OC[C@@]1(O)C2` | 39.81 | cytotoxic, partial curve |
| `Cc1c(C(=O)O)c(O)cc2c1C(=O)c1c(O)c([C@H]3O[C@H](CO)[C@@H](O)[C@H](O)[C@H]3O)c(O)c(O)c1C2=O` | 39.81 | cytotoxic, partial curve |
| `COP(=O)(OC)OC=C(Cl)Cl` | 31.62 | cytotoxic, partial curve |
| `Oc1c(I)cc(Cl)c2cccnc12` | 79.43 | cytotoxic, single point |
| `COC(=O)[C@H]1[C@H]2C[C@@H]3c4[nH]c5cc(OC)ccc5c4CCN3C[C@H]2C[C@@H](OC(=O)c2cc(OC)c(OC)c(OC)c2)[C@@H]1OC` | 79.43 | cytotoxic, single point |
| `N=C(N)c1ccc(OCCCCCOc2ccc(C(=N)N)cc2)cc1` | 50.12 | cytotoxic, partial curve |
| `Oc1c(Cl)cc(Cl)c(Cl)c1Cc1c(O)c(Cl)cc(Cl)c1Cl` | 50.12 | cytotoxic, partial curve |
| `C[C@@H]1C[C@@H]([C@H](O)CC2CC(=O)NC(=O)C2)C(=O)[C@@H](C)C1` | 1 | cytotoxic, full curve |
| `C[C@]12C/C(=C/O)C(=O)C[C@@H]1CC[C@@H]1[C@@H]2CC[C@@]2(C)[C@H]1CC[C@]2(C)O` | 79.43 | cytotoxic, single point |
| `[O]=[Cr](=[O])([OH])[O][Cr](=[O])(=[O])[OH]` | 39.81 | cytotoxic, partial curve |

Repeated from the top, 2 entries:

{"smiles": "ClC1=C(Cl)C2(Cl)C3C4C=CC(C4)C3C1(Cl)C2(Cl)Cl", "stereo": "stereo not given", "Potency (µM)": "39.81", "curve as filed": "cytotoxic, partial curve"}
{"smiles": "C=CC(=O)OCCOCCOC(=O)C=C", "Potency (µM)": "19.95", "curve as filed": "cytotoxic, partial curve"}

Source: PubChem BioAssay AID993 (NCATS, 2007).